PubChem BioAssay AID652272 – Drosophila RNAi Screening Center, 2013
The deposit covers about 21,000 reagents; this is an unselected part of those with a known target gene and a result. In the full data, 503 (2.4%) are marked active. 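Raw plate light values, not normalised; calls rest on replicate z-scores that were not deposited; hits include reporter decreases as well as increases.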 Not given: the amount of reagent, the time to read-out.

Test: 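Finding fly genes that regulate Hedgehog signal transduction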 (primary screen)
Cell system: Drosophila clone 8 (Cl8) cells
Knock-down reagent: long dsRNA against Drosophila genes
Measurement: 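Plate reader light from a firefly reporter under a ptc promoter fragment that responds to Hedgehog, with Renilla light as transfection reference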
Direction: firefly Hh reporter signal: higher = more ptc reporter light; Renilla reference signal: higher = more Renilla control light
Rule for the call: 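Hit when the z-score averaged over two replicates is under -2 or over +3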
Calls: active = hit: reporter lowered or raised; inactive = not a hit

flz [DRSC07109]
- firefly Hh reporter signal, replicate 1: 93306
- firefly Hh reporter signal, replicate 2: 63978
- Renilla reference signal, replicate 1: 2548
- Renilla reference signal, replicate 2: 6529
- Call: inactive

CG17167 [DRSC20902]
- firefly Hh reporter signal, replicate 1: 1.34e5
- firefly Hh reporter signal, replicate 2: 2.50e5
- Renilla reference signal, replicate 1: 5127
- Renilla reference signal, replicate 2: 11496
- Call: inactive

CG17167 [DRSC20903]
- firefly Hh reporter signal, replicate 1: 1.50e5
- firefly Hh reporter signal, replicate 2: 2.81e5
- Renilla reference signal, replicate 1: 5089
- Renilla reference signal, replicate 2: 13686
- Call: inactive

atilla [DRSC02971]
- firefly Hh reporter signal, replicate 1: 1.67e5
- firefly Hh reporter signal, replicate 2: 85196
- Renilla reference signal, replicate 1: 4064
- Renilla reference signal, replicate 2: 7719
- Call: inactive

CG31937 [DRSC00514]
- firefly Hh reporter signal, replicate 1: 1.34e5
- firefly Hh reporter signal, replicate 2: 1.33e5
- Renilla reference signal, replicate 1: 5751
- Renilla reference signal, replicate 2: 4827
- Call: inactive

CG14478 [DRSC06450]
- firefly Hh reporter signal, replicate 1: 94598
- firefly Hh reporter signal, replicate 2: 41499
- Renilla reference signal, replicate 1: 2561
- Renilla reference signal, replicate 2: 3264
- Call: inactive

MsR2 [DRSC08336]
- firefly Hh reporter signal, replicate 1: 1.34e5
- firefly Hh reporter signal, replicate 2: 77912
- Renilla reference signal, replicate 1: 3399
- Renilla reference signal, replicate 2: 5424
- Call: inactive

MsR2 [DRSC08337]
- firefly Hh reporter signal, replicate 1: 53367
- firefly Hh reporter signal, replicate 2: 37629
- Renilla reference signal, replicate 1: 1797
- Renilla reference signal, replicate 2: 3056
- Call: inactive

Sugb [DRSC10815]
- firefly Hh reporter signal, replicate 1: 1.09e5
- firefly Hh reporter signal, replicate 2: 65642
- Renilla reference signal, replicate 1: 5154
- Renilla reference signal, replicate 2: 2534
- Call: inactive

CG15708 [DRSC06579]
- firefly Hh reporter signal, replicate 1: 68770
- firefly Hh reporter signal, replicate 2: 32092
- Renilla reference signal, replicate 1: 2018
- Renilla reference signal, replicate 2: 2903
- Call: inactive

Lsp1beta [DRSC00757]
- firefly Hh reporter signal, replicate 1: 80405
- firefly Hh reporter signal, replicate 2: 56618
- Renilla reference signal, replicate 1: 3593
- Renilla reference signal, replicate 2: 2458
- Call: inactive

Ibf2 [DRSC16551]
- firefly Hh reporter signal, replicate 1: 83856
- firefly Hh reporter signal, replicate 2: 1.09e5
- Renilla reference signal, replicate 1: 2155
- Renilla reference signal, replicate 2: 3234
- Call: inactive

cype [DRSC02356]
- firefly Hh reporter signal, replicate 1: 1.41e5
- firefly Hh reporter signal, replicate 2: 70083
- Renilla reference signal, replicate 1: 3193
- Renilla reference signal, replicate 2: 6384
- Call: inactive

Rtel1 [DRSC18343]
- firefly Hh reporter signal, replicate 1: 94656
- firefly Hh reporter signal, replicate 2: 2.68e5
- Renilla reference signal, replicate 1: 3414
- Renilla reference signal, replicate 2: 9028
- Call: inactive

Individual results from above.
Entry of CG14478 [DRSC06450] in “Renilla reference signal, replicate 2”: 3264
MsR2 [DRSC08337], firefly Hh reporter signal, replicate 2: 37629
